The source of these data is publication PMC12040169 (PLOS Biology, 2025).

Some of the results follow.

The test system of the assay is T1, CTL2-GFP (C. trachomatis L2/434/Bu, GFP-expressing).
T1 construct: L2/434/Bu, GFP-expressing
Also noted: species or system HeLa; Intracellular C. trachomatis growth in HeLa cells, bulk GFP fluorescence relative to DMSO. Particulars: bulk GFP, single well; 28.5 h, 10 µM; inhibitor.
Take `O=C1CCc2cc(S(=O)(=O)Nc3ccc(OCc4ccccc4)cc3)ccc2N1` [CBK286365]: the “% of control remaining” value is 98.9413%.
In the case of `CCCc1[nH]nc(O)c1Cc1c(F)cccc1[N+](=O)[O-]` [CBK075029], the “% of control remaining” value is 89.9953%.
To `CC(C)(O)C#Cc1ccc(C(=O)NCCCNC(=O)c2ccc(C#CC(C)(C)O)s2)s1` [CBK267142] belongs 128.224%.
To `COc1ccc(C)cc1S(=O)(=O)N1CCCC(C(=O)NCc2ccccn2)C1` (stereo not shown) [CBK268503] belongs 156.029%; to `Cc1cc2oc(=O)c3c(c2cc1C)CCN(C)C3` [CBK017803], 130.785%; to `CC(C)c1nnc(SCc2ccc(CSc3nnc(C(C)C)n3N)cc2)n1N` [CBK267911], 129.205%.
On to `CC1CC1C(=O)N(C)C1CCN(c2ncnc3ccccc23)CC1` (stereo not shown) [CBK304972], for which the “% of control remaining” value came to 118.552%.
To `CC(=O)Oc1ccc(C(=O)Nc2ccc3c(c2)C(=O)N(CCC(=O)O)C3=O)cc1` [CBK265997] belongs 86.0722%; to `O=c1cccc2n1CC1CC2CN(Cc2cccc(OCc3ccccc3)c2)C1` (stereo not shown) [CBK262426], 80.2256%.
On to `O=C(CCn1cnc2ccccc2c1=O)Nc1ccc(S(=O)(=O)N2CCCC2)cc1` [CBK267642], for which the “% of control remaining” value is given as 115.796%.
For `COc1ccc(-c2nc3cc(C(C)C)ccc3o2)cc1NC(=O)Cc1ccc(Cl)cc1` [CBK266409], the “% of control remaining” value is 154.587%.
To `COc1ccc(-c2cnc(N)c(N[C@@H](C)c3ccccc3)n2)c(OC)c1OC` [CBK063763] belongs 132.877%; to `CC(c1nc(N)nc(N(C)C)n1)N(C)CCOc1ccccc1F` (stereo not shown) [CBK306053], 100.417%; to `O=C(CSc1nnc(SCc2cccc3ccccc23)s1)Nc1ccccc1C(F)(F)F` [CBK267575], 117.226%.
On to `COc1nccc(N2CCC3(CCC(=O)N(CCO)C3)CC2)c1C#N` [CBK307255], for which the “% of control remaining” value turned out to be 109.935%.
To `Cc1cc(N)n(-c2nc3c(cnn3-c3ccc(C)c(C)c3)c(=O)[nH]2)n1` [CBK287646] belongs 147.874%; to `COc1ccc(CNC(=O)N(C)C2CCN(C)C2)cc1OC` (stereo not shown) [CBK156020], 157.316%; to `CCOC(=O)CSc1nc2ccccc2nc1C(F)(F)F` [CBK107200], 104.987%.
`O=C(c1csc(-c2ccncc2)n1)N1CCN(c2ccccc2)CC1` [CBK288590]: the “% of control remaining” value came to 112.897%.
To `Cc1oc(-c2cccc(Cl)c2)cc1C(=O)O` [CBK045856] belongs 162.404%; to `COCOc1ccc(-c2nc(-c3cccnc3)cnc2N)cc1` [CBK063999], 165.306%; to `COc1ccc(NC(=O)c2ccc(-c3nnn[nH]3)cc2)cc1Cl` [CBK295139], 134.996%.
As to `CCOc1cc(OCC)cc(C(=O)N2CCC3(CC2)CC(=O)c2cc(OCC)ccc2O3)c1` [CBK168013], the “% of control remaining” value is 119.497%.
As to `O=C(C1CCCN(CC(O)c2cccs2)C1)N1CCCCCC1` (stereo not shown) [CBK282117], the “% of control remaining” value is recorded as 134.98%.
`CN(C)CCN(C)C(=O)Cc1csc(-c2cccc(Cl)c2)n1` [CBK282176]: the “% of control remaining” value is listed as 93.0047%.
As for `Cc1nn(C)c(C)c1CN(C)S(=O)(=O)Cc1ccc(F)cc1` [CBK281590], the “% of control remaining” value worked out at 134.746%.
For `O=C(O)c1ccc(-c2cnc3ccccc3n2)cc1` [CBK288010], the “% of control remaining” value came to 90.8372%.
To `Cc1ncsc1CCN(C)C(C)C(=O)Nc1nccs1` (stereo not shown) [CBK307709] belongs 101.51%; to `Cc1ccc(CC(=O)N2CC(=O)Nc3ccccc32)cc1` [CBK287670], 146.427%; to `Cc1cccc(C(=O)N[C@@H](C)Cn2nc3c(cc2=O)CCCC3)c1` [CBK284563], 149.574%.
To `CC(C)(C)c1cc(CNCCS(=O)(=O)O)c(O)c(C(C)(C)C)c1` [CBK261098] belongs 104.774%.
To `O=C(Nc1cc(-c2nc3ncccc3o2)ccc1Cl)c1ccc2c(c1)OCCO2` [CBK264105] belongs 117.945%; to `O=C(COc1ccccc1)n1nc(-c2ccco2)nc1NCc1cccs1` [CBK269145], 131.041%.
Turning to `CCN1C(=O)c2cccc3c(S(=O)(=O)N4CCCC4C(=O)O)ccc1c23` (stereo not shown) [CBK267169], the “% of control remaining” value is on record as 113.607%.
On to `CC(=O)NCCNC(=O)c1cnc(-c2ccc(Cl)cc2)c(-c2ccc(O)cc2)c1` [CBK036647], for which the “% of control remaining” value is 171.391%.
`CCOc1cccc(CNn2cnnc2)c1OCc1ccccc1` [CBK265824]: the “% of control remaining” value was 114.337%.
To `Cc1cc(Cl)cc(C)c1OCCN1CCNCC1` [CBK266057G] belongs 128.962%; to `CN1CCC(N(C)Cc2ccccc2[N+](=O)[O-])CC1` [CBK261565], 118.792%.
For the compound `CC(c1ccccc1)N1Cc2cccc(C(=O)O)c2C1=O` (stereo not shown) [CBK291252], the “% of control remaining” value turned out to be 138.899%.
To `COCCNC(=O)N(CCC#N)C1CCCCC1` [CBK156358] belongs 116.295%; to `Cc1nnc(SCc2nnc(-c3ccccc3)o2)n1Cc1ccccc1` [CBK269743], 121.559%; to `O=C1CCc2cc(S(=O)(=O)Nc3ccccc3Cc3ccccc3)ccc2N1` [CBK286369], 83.4633%.
For the compound `Cc1ccc(C(C)C(=O)N2CCC(O)(c3ccccn3)CC2)cc1` (stereo not shown) [CBK283787], the “% of control remaining” value was 127.5%.
To `COC1CCCN(Cc2cncn2C2CCCCC2)C1` (stereo not shown) [CBK306542] belongs 121.162%.
Take `O=c1cc(CN2CCOCC2)oc2c(OCc3nnnn3C3CC3)cccc12` [CBK007813]: the “% of control remaining” value is 100.682%.
As to `Cc1nc2c(C(=O)NCCCN3CCCC3=O)cnn2c(C)c1Cc1cccnc1` [CBK162151], the “% of control remaining” value amounted to 109.543%.
For the compound `O=S(=O)(Cc1ccc(Cl)cc1Cl)N1CCOCC1` [CBK058967], the “% of control remaining” value is reported as 100.701%.
For `CN1CCN(c2cc(C(F)(F)F)c3scc(C(=O)NCCC4=CCCCC4)c3n2)CC1` [CBK028474], the “% of control remaining” value amounted to 106.98%.
For the compound `Nc1nnc(Sc2nc3cc(Cl)c(Cl)cc3nc2N2CCCC2)s1` [CBK115267], the “% of control remaining” value worked out at 84.3003%.
To `O=C(NC(c1ccc(F)cc1)c1cnccn1)C1CCN(S(=O)(=O)c2cccc(Cl)c2)CC1` (stereo not shown) [CBK060013] belongs 170.558%; to `O=C(Nc1ccc(Cl)cc1)c1ccc(N2CCN(Cc3ccccc3)CC2)c([N+](=O)[O-])c1` [CBK264422], 100%; to `OC1(Cn2ccc3ncccc32)CCN(Cc2cccs2)CC1` [CBK284783], 127.151%.
To `O=C(O)/C=C/c1ccccc1OCC(=O)NC1CCCCC1` [CBK286900] belongs 99.8523%.
Take `COc1cccc(Cn2c(=O)n(C)c3ncccc32)c1` [CBK282391]: the “% of control remaining” value came out at 147.195%.
To `Cc1oc(C(=O)N2CCc3sccc3C2c2ccccc2)cc1CN1CCOCC1` (stereo not shown) [CBK285566] belongs 114.973%.
To `COc1ccc(CCC(C)NC2CCCc3c2[nH]c2ccc([N+](=O)[O-])cc32)cc1` (stereo not shown) [CBK262876] belongs 38.8322%; to `O=C(NC(C(=O)N/N=C/c1coc2ccccc2c1=O)c1n[nH]c(=O)c2ccccc12)c1ccccc1` (stereo not shown) [CBK262847], 99.0221%; to `Oc1cccc(OCCOc2nccc(C(F)(F)F)n2)c1` [CBK115903], 109.637%.
Take `O=C(O)C1CSC(c2ccc(-c3cccc(Cl)c3)o2)N1` (stereo not shown) [CBK286997]: the “% of control remaining” value is 113.139%.
To `CCCc1nn(CC(=O)N2CCCC2)c(=O)c2cc3ccsc3n12` [CBK284145] belongs 122.973%; to `Cc1nc2ccccc2c(=O)n1Cc1cccnc1` [CBK288092], 142.652%; to `O=C(CCC1CCCCC1)Nc1c[nH]c(=O)[nH]c1=O` [CBK287867], 94.9363%.
To `NC(=S)N1N=C(c2ccccc2)CC1c1ccccc1` (stereo not shown) [CBK288435] belongs 93.3502%; to `CCCN1CCN(C(=O)c2ccc(=O)n(C)c2)C(Cc2ccccc2-c2ccccc2)C1=O` (stereo not shown) [CBK285836], 97.1314%; to `O=C(O)C1Cc2nc[nH]c2C(c2ccc(F)cc2)N1` (stereo not shown) [CBK286970], 119.738%.
As to `COc1ccc(C(=O)Cn2nc3nnc(-c4ccccc4)c(-c4ccccc4)n3c2=O)cc1` [CBK286181], the “% of control remaining” value came to 138.44%.
Regarding `CC(=O)Nc1cccc(NC(=O)N2CCN(C3CCN(C)CC3)CC2)c1` [CBK155901], the “% of control remaining” value came out at 90.578%.
In the case of `COC(=O)c1sc(NC(=O)c2cccnc2)c(C#N)c1C` [CBK265007], the “% of control remaining” value is recorded as 113.241%.
To `Cc1cc(C)c(NC(=O)C2CCCCN2C23CC4CC(CC(C4)C2)C3)c(C)c1` (stereo not shown) [CBK261559C] belongs 101.985%; to `O=C(Nc1ccc(Cl)cc1)C(Cc1ccccc1)N1C(=O)c2cc(Cl)c(Cl)cc2C1=O` (stereo not shown) [CBK264172], 120.258%.
With `O=C(Nc1ccc2c(c1)OCCO2)c1cnccn1` [CBK220830], the “% of control remaining” value was found to be 100.707%.
To `CCCNC(=O)CN(C)CC(=O)Nc1sc2c(c1C#N)CCC(C)C2` (stereo not shown) [CBK305845] belongs 103.476%; to `CS(=O)(=O)N(CC(=O)Nc1ccccc1F)c1ccc(I)cc1` [CBK265265], 115.54%; to `Nc1ccn([C@H]2C[C@@H](O)[C@@H](CO)O2)c(=S)n1` [CBK201187], 189.137%.
Regarding `CC(Oc1ccc(F)cc1)C(=O)Nc1ccc(S(N)(=O)=O)cc1` (stereo not shown) [CBK265506], the “% of control remaining” value is recorded as 137.815%.
Consider `O=C(CN1C(=O)c2ccc([N+](=O)[O-])cc2C1=O)Nc1cc(Cl)ccc1C(=O)O` [CBK263472], for which the “% of control remaining” value was found to be 108.181%.
As for `COCC(=O)N1CCc2sccc2C1c1ccc(NCc2cccc(OC)c2)cc1` (stereo not shown) [CBK286454], the “% of control remaining” value stood at 119.732%.
Take `COc1ccc(S(=O)(=O)N2CCN(C(=O)c3cc(-c4ccncc4)nc4c(C)c(Cl)ccc34)CC2)cc1` [CBK267739]: the “% of control remaining” value was 135.247%.
To `COCCNS(=O)(=O)c1cccc2c1CN(C(=O)CC1CCCC1)CC2` [CBK306982] belongs 157.774%.
